# Source: the supplement of paper PMC4604168 (melanoma cell lines)
# The list shows a part of the results. Many values rest on one well or one pass, so single values are uncertain.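 Imaging used 1,536-well plates; nuclei positive for cleaved PARP by antibody were divided by total DNA-stained nuclei to yield the apoptosis fraction. Doses for screening kept most cells viable, and cell lines differ markedly in resting and induced cleaved-PARP levels.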
# Columns and labels:
# Test in all cases: cleaved PARP positive nuclei fraction relative to DMSO control; melanoma cells; higher = more apoptosis
# Details in all cases: library dose: low library concentration; 72 h
# [1] = tested on: 501Mel
# [2] = tested on: A101D
# [3] = tested on: A2058
# [4] = tested on: A375
# [5] = tested on: C32
# [6] = tested on: CBRC008 (line from a melanoma biopsy)
# [7] = tested on: CBRC014 (line from a melanoma biopsy)
# [8] = tested on: CBRC016 (line from a melanoma biopsy)
# [9] = tested on: CBRC017 (line from a melanoma biopsy)
SMILES,cleaved PARP positive nuclei fraction [1] [%],cleaved PARP positive nuclei fraction [2] [%],cleaved PARP positive nuclei fraction [3] [%],cleaved PARP positive nuclei fraction [4] [%],cleaved PARP positive nuclei fraction [5] [%],cleaved PARP positive nuclei fraction [6] [%],cleaved PARP positive nuclei fraction [7] [%],cleaved PARP positive nuclei fraction [8] [%],cleaved PARP positive nuclei fraction [9] [%]
"CN(c1ncccc1CNc1nc(Nc2ccc3c(c2)CC(=O)N3)ncc1C(F)(F)F)S(C)(=O)=O + C[C@]1(c2nc3c(C(N)=O)cccc3[nH]2)CCCN1 [Veliparib] (first compound 0.08 µM, partner dose 1.4 µM)",79,156,212,120,90,107,116,129,105
"CCN(CC)CCNC(=O)c1c(C)[nH]c(/C=C2\C(=O)Nc3ccc(F)cc32)c1C [sunitinib] + NC1(c2ccc(-c3nc4ccn5c(=O)[nH]nc5c4cc3-c3ccccc3)cc2)CCC1 [MK2206] (first compound 0.4 µM, partner dose 0.4 µM)",132,147,193,120,84.9,178,80.5,49.6,100
"CS(=O)(=O)c1ccc(C(=O)Nc2ccc(Cl)c(-c3ccccn3)c2)c(Cl)c1 [vismodegib] + O=C(O)c1ccc2c(c1)nc(Nc1cccc(Cl)c1)c1ccncc12 [CX4945] (first compound 1 µM, partner dose 0.4 µM)",64.7,86.1,176,83.6,67.4,109,93.4,393,119
"COc1ccc(C2=N[C@@H](c3ccc(Cl)cc3)[C@@H](c3ccc(Cl)cc3)N2C(=O)N2CCNC(=O)C2)c(OC(C)C)c1 [Nutlin-3] + CO[C@H]1C[C@@H]2CC[C@@H](C)[C@@](O)(O2)C(=O)C(=O)N2CCCC[C@H]2C(=O)O[C@H]([C@H](C)C[C@@H]2CC[C@@H](OCCO)[C@H](OC)C2)CC(=O)[C@H](C)/C=C(\C)[C@@H](O)[C@@H](OC)C(=O)[C@H](C)C[C@H](C)/C=C/C=C/C=C/1C [everolimus] (first compound 0.1 µM, partner dose 0.02 µM)",1010,111,57.5,542,86.3,87.9,94.5,106,217
"NC1(c2ccc(-c3nc4ccn5c(=O)[nH]nc5c4cc3-c3ccccc3)cc2)CCC1 + C#Cc1cccc(Nc2ncnc3cc(OCCOC)c(OCCOC)cc23)c1 [erlotinib] (first compound 0.4 µM, partner dose 0.8 µM)",197,277,97.3,167,78.4,388,93.4,106,101
"Cn1sc(=O)n(Cc2ccccc2)c1=O + CS(=O)(=O)c1ccc(C(=O)Nc2ccc(Cl)c(-c3ccccn3)c2)c(Cl)c1 [vismodegib] (first compound 0.4 µM, partner dose 1 µM)",133,40,80.5,97.9,71.2,79.7,106,37,428
"CCCCCCCCc1ccc(CCC(N)(CO)CO)cc1 [fingolimod] + O=C(O)c1ccc2c(c1)nc(Nc1cccc(Cl)c1)c1ccncc12 [CX4945] (first compound 2 µM, partner dose 0.4 µM)",281,146,99.9,323,84.5,74.4,93.9,63,140
"COc1ccc(C2=N[C@@H](c3ccc(Cl)cc3)[C@@H](c3ccc(Cl)cc3)N2C(=O)N2CCNC(=O)C2)c(OC(C)C)c1 [Nutlin-3] + Cn1c(Nc2ccc(C(F)(F)F)cc2)nc2cc(Oc3ccnc(-c4ncc(C(F)(F)F)[nH]4)c3)ccc21 [CHIR265] (first compound 0.1 µM, partner dose 0.08 µM)",99.6,81.4,138,279,81.1,89,101,204,182
"CC1(C)CCC(c2ccc(Cl)cc2)=C(CN2CCN(c3ccc(C(=O)NS(=O)(=O)c4ccc(N[C@H](CCN5CCOCC5)CSc5ccccc5)c(S(=O)(=O)C(F)(F)F)c4)cc3)CC2)C1 + Clc1ccc(Nc2nnc(Cc3ccncc3)c3ccccc23)cc1 [vatalanib] (first compound 0.4 µM, partner dose 2 µM)",126,269,346,618,425,578,687,915,293
"CCN(CC)CCNC(=O)c1c(C)[nH]c(/C=C2\C(=O)Nc3ccc(F)cc32)c1C [sunitinib] + COc1ccc(Cl)c(Nc2nc3ccccc3nc2NS(=O)(=O)c2cccc(NC(=O)C(C)(C)N)c2)c1 [XL147] (first compound 0.4 µM, partner dose 0.8 µM)",448,265,142,187,107,172,85.3,154,115
"CCCCCCCCc1ccc(CCC(N)(CO)CO)cc1 [fingolimod] + OCc1c[nH]c2ccccc12 [Indole-3-carbinol] (first compound 2 µM, partner dose 0.8 µM)",496,54.5,137,553,78.4,54.6,175,32.5,201
"COc1ccc(C2=N[C@@H](c3ccc(Cl)cc3)[C@@H](c3ccc(Cl)cc3)N2C(=O)N2CCNC(=O)C2)c(OC(C)C)c1 [Nutlin-3] + OCc1c[nH]c2ccccc12 [Indole-3-carbinol] (first compound 0.1 µM, partner dose 0.8 µM)",62.6,95.6,137,106,216,154,89.3,45,99.2
"CN(c1ncccc1CNc1nc(Nc2ccc3c(c2)CC(=O)N3)ncc1C(F)(F)F)S(C)(=O)=O + C#Cc1cccc(Nc2ncnc3cc(OCCOC)c(OCCOC)cc23)c1 [erlotinib] (first compound 0.08 µM, partner dose 0.8 µM)",82,67.1,182,281,82.1,148,99.8,60.6,128
"CN(c1ncccc1CNc1nc(Nc2ccc3c(c2)CC(=O)N3)ncc1C(F)(F)F)S(C)(=O)=O + CC(C)C[C@H](NC(=O)[C@H](Cc1ccccc1)NC(=O)c1cnccn1)B(O)O [Bortezomib] (first compound 0.08 µM, partner dose 0.001 µM)",442,231,142,93.3,94,573,182,177,214
"C[C@@H](N)c1ccc(C(=O)Nc2ccnc3[nH]ccc23)cc1 + C=C(c1ccc(C(=O)O)cc1)c1cc2c(cc1C)C(C)(C)CCC2(C)C [Bexarotene] (first compound 0.4 µM, partner dose 2 µM)",114,53.5,141,132,307,113,1090,99.8,104
"CC1(C)CCC(c2ccc(Cl)cc2)=C(CN2CCN(c3ccc(C(=O)NS(=O)(=O)c4ccc(N[C@H](CCN5CCOCC5)CSc5ccccc5)c(S(=O)(=O)C(F)(F)F)c4)cc3)CC2)C1 + O=C(O)c1ccc2c(c1)nc(Nc1cccc(Cl)c1)c1ccncc12 [CX4945] (first compound 0.4 µM, partner dose 0.4 µM)",162,466,360,281,190,339,1600,1500,476
"CS(=O)(=O)c1ccc(C(=O)Nc2ccc(Cl)c(-c3ccccn3)c2)c(Cl)c1 [vismodegib] + C[C@@H](Oc1cc(-c2cnn(C3CCNCC3)c2)cnc1N)c1c(Cl)ccc(F)c1Cl [Crizotinib] (first compound 1 µM, partner dose 0.2 µM)",114,231,105,77.5,80.7,107,83.7,146,106
"COc1ccc(C2=N[C@@H](c3ccc(Cl)cc3)[C@@H](c3ccc(Cl)cc3)N2C(=O)N2CCNC(=O)C2)c(OC(C)C)c1 [Nutlin-3] + C[C@]1(O)C[C@@H](c2nc(-c3ccc4ccc(-c5ccccc5)nc4c3)c3c(N)nccn32)C1 [OSI906] (first compound 0.1 µM, partner dose 0.4 µM)",310,57.5,119,432,73.4,114,98.1,162,148
"CC1(C)CCC(c2ccc(Cl)cc2)=C(CN2CCN(c3ccc(C(=O)NS(=O)(=O)c4ccc(N[C@H](CCN5CCOCC5)CSc5ccccc5)c(S(=O)(=O)C(F)(F)F)c4)cc3)CC2)C1 + CCN(CC)CCNC(=O)c1c(C)[nH]c(/C=C2\C(=O)Nc3ccc(F)cc32)c1C [sunitinib] (first compound 0.4 µM, partner dose 0.4 µM)",212,102,454,285,622,512,615,585,329
"C[C@@H](N)c1ccc(C(=O)Nc2ccnc3[nH]ccc23)cc1 + CNC(=O)c1cc(Oc2ccc(NC(=O)Nc3ccc(Cl)c(C(F)(F)F)c3)cc2)ccn1 [sorafenib] (first compound 0.4 µM, partner dose 0.4 µM)",123,136,123,219,89.9,86,119,71.3,208

# No new results follow: an excerpt of the list.
SMILES,cleaved PARP positive nuclei fraction [1] [%],cleaved PARP positive nuclei fraction [2] [%],cleaved PARP positive nuclei fraction [3] [%],cleaved PARP positive nuclei fraction [4] [%],cleaved PARP positive nuclei fraction [5] [%],cleaved PARP positive nuclei fraction [6] [%],cleaved PARP positive nuclei fraction [7] [%],cleaved PARP positive nuclei fraction [8] [%],cleaved PARP positive nuclei fraction [9] [%]
"C[C@@H](N)c1ccc(C(=O)Nc2ccnc3[nH]ccc23)cc1 + C=C(c1ccc(C(=O)O)cc1)c1cc2c(cc1C)C(C)(C)CCC2(C)C [Bexarotene] (first compound 0.4 µM, partner dose 2 µM)",114,53.5,141,132,307,113,1090,99.8,104
"CC1(C)CCC(c2ccc(Cl)cc2)=C(CN2CCN(c3ccc(C(=O)NS(=O)(=O)c4ccc(N[C@H](CCN5CCOCC5)CSc5ccccc5)c(S(=O)(=O)C(F)(F)F)c4)cc3)CC2)C1 + O=C(O)c1ccc2c(c1)nc(Nc1cccc(Cl)c1)c1ccncc12 [CX4945] (first compound 0.4 µM, partner dose 0.4 µM)",162,466,360,281,190,339,1600,1500,476
"CS(=O)(=O)c1ccc(C(=O)Nc2ccc(Cl)c(-c3ccccn3)c2)c(Cl)c1 [vismodegib] + C[C@@H](Oc1cc(-c2cnn(C3CCNCC3)c2)cnc1N)c1c(Cl)ccc(F)c1Cl [Crizotinib] (first compound 1 µM, partner dose 0.2 µM)",114,231,105,77.5,80.7,107,83.7,146,106
"COc1ccc(C2=N[C@@H](c3ccc(Cl)cc3)[C@@H](c3ccc(Cl)cc3)N2C(=O)N2CCNC(=O)C2)c(OC(C)C)c1 [Nutlin-3] + C[C@]1(O)C[C@@H](c2nc(-c3ccc4ccc(-c5ccccc5)nc4c3)c3c(N)nccn32)C1 [OSI906] (first compound 0.1 µM, partner dose 0.4 µM)",310,57.5,119,432,73.4,114,98.1,162,148
